# Experimental data taken from the supplement of paper PMC6411743.
# ± gives the standard deviation of the averaged measurements. Some of the results follow.
# Target: T1, C9JI46 and related entries (UniProt Q8N3X6)
# T1 sequence (whole entry): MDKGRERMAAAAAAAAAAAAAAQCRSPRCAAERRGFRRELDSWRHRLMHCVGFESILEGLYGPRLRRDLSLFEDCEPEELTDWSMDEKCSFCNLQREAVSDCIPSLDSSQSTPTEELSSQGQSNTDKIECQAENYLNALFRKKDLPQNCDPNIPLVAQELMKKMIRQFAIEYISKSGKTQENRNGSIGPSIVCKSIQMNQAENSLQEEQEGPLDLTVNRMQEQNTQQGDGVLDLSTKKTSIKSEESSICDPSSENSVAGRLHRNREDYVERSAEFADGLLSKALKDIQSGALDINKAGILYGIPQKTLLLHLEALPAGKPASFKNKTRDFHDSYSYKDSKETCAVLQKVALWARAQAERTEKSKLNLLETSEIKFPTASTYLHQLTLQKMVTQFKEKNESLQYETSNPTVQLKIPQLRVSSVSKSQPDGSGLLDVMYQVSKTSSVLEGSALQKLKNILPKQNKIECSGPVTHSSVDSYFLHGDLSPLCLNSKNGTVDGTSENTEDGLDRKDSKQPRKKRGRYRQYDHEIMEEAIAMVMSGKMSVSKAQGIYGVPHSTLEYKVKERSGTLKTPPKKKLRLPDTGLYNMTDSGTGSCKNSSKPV
# Assay: NP40-soluble protein abundance relative to vehicle (solubility fold change) (ratio); higher = more soluble protein in presence of GTP
# Experimental: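 Solubility proteome profiling in Jurkat crude lysate. Lysate was treated with Mg-GTP (0.1-10 mM) for 10 min at room temperature and 3 min at 37 °C, then solubilised with 0.8% NP40 and benzonase, followed by ultracentrifugation. Proteins were quantified by TMT10 LC-MS/MS; the value is the NP40-soluble abundance relative to the NP40-processed vehicle, from 3 independent experiments.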
smiles,measurement,setting,value
Nc1nc2c(ncn2[C@@H]2O[C@H](COP(=O)(O)OP(=O)(O)OP(=O)(O)O)[C@@H](O)[C@H]2O)c(=O)[nH]1 [guanosine triphosphate],NP40-soluble protein abundance,concentration: 0.1mM,0.974 ± 0.18
same,NP40-soluble protein abundance,concentration: 0.5mM,1.04 ± 0.17
same,NP40-soluble protein abundance,concentration: 1mM,1.04 ± 0.038
same,NP40-soluble protein abundance,concentration: 2mM,1.09 ± 0.18
same,NP40-soluble protein abundance,concentration: 4mM,0.988 ± 0.13
same,NP40-soluble protein abundance,concentration: 6mM,0.989 ± 0.19
same,NP40-soluble protein abundance,concentration: 8mM,1.07 ± 0.13
same,NP40-soluble protein abundance,concentration: 10mM,1.04 ± 0.2
